The test system of this data set is healthy cats. The note with it: 150 mg once daily for 21 days with placebo or synbiotic; 16 cats.

For `CCC[C@@H]1C[C@@H](C(=O)N[C@@H]([C@H]2O[C@H](SC)[C@H](O)[C@@H](O)[C@H]2O)[C@H](C)Cl)N(C)C1` [clindamycin], the “development of antibiotic-associated gastrointestinal signs (AAGS)” value is on record as “All cats developed AAGS”.

(Values after article PMC5508335 (Journal of Veterinary Internal Medicine, 2017).)
